Source: US20040014721A1, “Method for using tethered bis(polyhydroxyphenyls) and O-alkyl derivatives thereof in treating inflammatory conditions of the central nervous system” (Oklahoma Medical Research Foundation, priority 2002, published 2004)

Test system: EOC-20 cells
Conditions: Table III; ratio of MTT LD50 to nitrite IC50
Protocol: Lower IC50 values indicate improved efficacy. FIG. 2 illustrates the principle of the measurement using NDGA as an example test agent. In order to determine viability, cell culture medium was replaced with phenol-free DMEM (Gibco) containing 20 μL/mL of MTT viability reagent (Promega). […] Control cells were taken to indicate 100% viability and intermediate values of MTT reduction were scaled to percentage of control. For each compound, an LD50 value was determined by extrapolation through sublethal concentrations. This value represents the concentration that reduced the MTT viability parameter by 50%.

Compound | LD50/IC50
7-Bis (4-hydroxy-3-methoxyphenyl)-1,6-heptadiene-3,5-dione [Curcumin] | 17.14
O=c1c(O)c(-c2ccccc2)oc2cc(O)cc(O)c12 [3,5,7-trihydroxy-flavone (galangin), 3,5,7-trihydroxy-flavone] | 1.41
O=c1c(O)c(-c2ccccc2)oc2ccccc12 [3-OH-flavone] | 1.79
O=c1cc(-c2ccc(O)cc2)oc2cc(O)cc(O)c12 [4′,5,7-trihydroxy-flavone (apigenin), 4′,5,7-trihydroxy-flavone] | 1.58
COc1ccc(-c2coc3cc(O)cc(O)c3c2=O)cc1 [4′-methoxy-5,7-dihydroxyisoflavone] | 2.29
O=c1cc(-c2ccccc2)oc2cccc(O)c12 [5-OH-flavone] | 9.12
O=c1cc(-c2ccccc2)oc2cc(O)ccc12 [7-OH-flavone, 7-OH-flavone] | 1.92
O=c1cc(-c2ccccc2)oc2cc(O)cc(O)c12 [Chrysin, 5,7-dihydroxy-flavone] | 1.35
O=c1cc(-c2ccccc2)oc2ccccc12 [Flavone] | 1.27
COc1ccc2c(c1)c(CC(=O)O)c(C)n2C(=O)c1ccc(Cl)cc1 [Indomethacin] | 2.03
O=c1c(O)c(-c2ccc(O)cc2)oc2cc(O)cc(O)c12 [Kaempherol, 3,4′,5,7-tetrahydroxy-flavone] | 1.49
N#CC(C#N)=Cc1ccc([N+](=O)[O-])c(O)c1 [Tyrphostin AG126] | 8.33
O=C(/C=C/c1ccc(O)c(O)c1)c1ccc(O)cc1O [butein (2′,4′,3,4-tetrahydroxychalcone), 2′,4′,3,4-tetrahydroxychalcone] | 15.10
S=C(S)N1CCCC1 [pyrollidine dithiocarbamate (PDTC), pyrollidine dithiocarbamate] | 1.76
